Values from PubChem BioAssay AID743454 (Peter MacCallum Cancer Centre, 2014)
The deposit covers about 18,000 reagents; shown is a part drawn at random. 450 of them (2.5%) count as active. 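Single biological run; no consistent viability z cut-off exists, so the class columns, not z-scores, define the calls.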

Aim: 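Knock-downs lowering viability or raising caspase 3/7 activity in vorinostat-treated resistant cells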 (primary screen)
Cells: human HCT116-VR colon cancer cells, selected for vorinostat resistance
Reagent: siRNA pool against human genes, 40 nM siRNA pool
Timing: vorinostat for 24 h, read-out about 72 h after transfection
Conditions: vorinostat at 2.5 µM final
Detection: 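Two measures, CellTiter-Fluor viability and luminescent caspase 3/7 activity, each as fold change against same-plate mock wells, mean of duplicates, then screen-wide robust z-score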
Direction: viability robust z-score: higher = more viable cells than screen typical; caspase robust z-score: higher = more caspase 3/7 activity than screen typical
Call rule: 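a knock-down is a hit when classed RV1 or RV2 for lowered viability, or CA1 or CA2 for caspase activation; those lethal without drug were dropped; hits were retested singly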

SCNN1B
- viability hit class: no change
- caspase hit class: no change
- viability robust z-score: 0.75
- caspase robust z-score: 1.12
- outcome: inactive

COL13A1
- viability hit class: no change
- caspase hit class: no change
- viability robust z-score: -1.04
- caspase robust z-score: 0.68
- outcome: inactive

GABBR1
- viability hit class: no change
- caspase hit class: no change
- viability robust z-score: 0.63
- caspase robust z-score: 0.9
- outcome: inactive

RNF11
- viability hit class: no change
- caspase hit class: no change
- viability robust z-score: -0.13
- caspase robust z-score: -0.73
- outcome: inactive

ZUP1
- viability hit class: no change
- caspase hit class: no change
- viability robust z-score: -1.95
- caspase robust z-score: -0.28
- outcome: inactive

SLC5A2
- viability hit class: no change
- caspase hit class: no change
- viability robust z-score: 0.32
- caspase robust z-score: 1.82
- outcome: inactive

GFRA4
- viability hit class: no change
- caspase hit class: no change
- viability robust z-score: -0.82
- caspase robust z-score: 1.94
- outcome: inactive

Only “viability hit class” (2 entries from above):
SCNN1B = no change
COL13A1 = no change

Continued.
SMPDL3B
- viability hit class: no change
- caspase hit class: no change
- viability robust z-score: 0.88
- caspase robust z-score: 0.82
- outcome: inactive

RAB4A
- viability hit class: no change
- caspase hit class: no change
- viability robust z-score: 0.86
- caspase robust z-score: -0.56
- outcome: inactive

TLX2
- viability hit class: no change
- caspase hit class: no change
- viability robust z-score: -2.56
- caspase robust z-score: 3.42
- outcome: inactive

OTULIN
- viability hit class: no change
- caspase hit class: no change
- viability robust z-score: -0.44
- caspase robust z-score: -0.42
- outcome: inactive

WFDC11
- viability hit class: no change
- caspase hit class: no change
- viability robust z-score: 1.2
- caspase robust z-score: -0.28
- outcome: inactive

ODAD1
- viability hit class: no change
- caspase hit class: no change
- viability robust z-score: -0.14
- caspase robust z-score: 0.06
- outcome: inactive

RPL22
- viability hit class: no change
- caspase hit class: no change
- viability robust z-score: -0.28
- caspase robust z-score: 0.16
- outcome: inactive
